PubChem BioAssay AID1259254, NCATS, 2017

Test: 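Gene knock-downs that lead to re-replication, shown by excess G2 DNA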 (primary screen)
Cell system: human HCT116 colorectal cancer cells
Knock-down reagent: single siRNA against human genes
Time to read-out: 3 days
Read-out: 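Nuclei stained with Hoechst and imaged; cell-cycle phase assigned by DNA content; G2 share scaled per plate, non-targeting siRNA 0%, GMNN siRNA 100%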
Reading the numbers: G2 robust z-score and G2 cells, % of GMNN control: higher = more G2 cells, more excess DNA replication
Hit rule: 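Active siRNAs have a G2 robust z of 5 or more median absolute deviations over the median, which in these data means about 38% or higher of GMNN control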
This is one part, drawn at random, of about 59,000 deposited reagents. About 1,550 of them (2.6%) count as active. 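G2 share is only a proxy for re-replication; each gene was hit by three separate siRNAs, and active genes were retested.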 The numbers tell different reagents against one gene apart. Not all columns of the deposit are shown. Not stated in the record: the amount of reagent.

{"gene knocked down": "MINDY4", "reagent no.": 1, "G2 robust z-score": 1.58, "G2 cells, % of GMNN control": 14.1, "outcome": "inactive"}
{"gene knocked down": "MINDY4", "reagent no.": 2, "G2 robust z-score": -1.01, "G2 cells, % of GMNN control": -4.11, "outcome": "inactive"}
{"gene knocked down": "MINDY4", "reagent no.": 3, "G2 robust z-score": 0.741, "G2 cells, % of GMNN control": 8.18, "outcome": "inactive"}
{"gene knocked down": "AGAP3", "reagent no.": 1, "G2 robust z-score": 0.572, "G2 cells, % of GMNN control": 6.99, "outcome": "inactive"}
{"gene knocked down": "AGAP3", "reagent no.": 2, "G2 robust z-score": 1.32, "G2 cells, % of GMNN control": 12.2, "outcome": "inactive"}
{"gene knocked down": "AGAP3", "reagent no.": 3, "G2 robust z-score": -1.08, "G2 cells, % of GMNN control": -4.65, "outcome": "inactive"}
{"gene knocked down": "PUS7L", "reagent no.": 1, "G2 robust z-score": -0.802, "G2 cells, % of GMNN control": -2.67, "outcome": "inactive"}
{"gene knocked down": "PUS7L", "reagent no.": 2, "G2 robust z-score": 0.832, "G2 cells, % of GMNN control": 8.82, "outcome": "inactive"}
{"gene knocked down": "PUS7L", "reagent no.": 3, "G2 robust z-score": -0.999, "G2 cells, % of GMNN control": -4.06, "outcome": "inactive"}
{"gene knocked down": "RUSC1", "reagent no.": 1, "G2 robust z-score": -0.902, "G2 cells, % of GMNN control": -3.38, "outcome": "inactive"}
{"gene knocked down": "RUSC1", "reagent no.": 2, "G2 robust z-score": -0.299, "G2 cells, % of GMNN control": 0.866, "outcome": "inactive"}
{"gene knocked down": "RUSC1", "reagent no.": 3, "G2 robust z-score": -0.313, "G2 cells, % of GMNN control": 0.765, "outcome": "inactive"}
{"gene knocked down": "KDSR", "reagent no.": 1, "G2 robust z-score": -0.791, "G2 cells, % of GMNN control": -2.6, "outcome": "inactive"}
{"gene knocked down": "KDSR", "reagent no.": 2, "G2 robust z-score": -0.207, "G2 cells, % of GMNN control": 1.51, "outcome": "inactive"}
{"gene knocked down": "KDSR", "reagent no.": 3, "G2 robust z-score": 3.72, "G2 cells, % of GMNN control": 29.1, "outcome": "inactive"}
{"gene knocked down": "EXOSC10", "reagent no.": 1, "G2 robust z-score": 0.0331, "G2 cells, % of GMNN control": 3.2, "outcome": "inactive"}
{"gene knocked down": "EXOSC10", "reagent no.": 2, "G2 robust z-score": -0.459, "G2 cells, % of GMNN control": -0.263, "outcome": "inactive"}
{"gene knocked down": "EXOSC10", "reagent no.": 3, "G2 robust z-score": 0.751, "G2 cells, % of GMNN control": 8.25, "outcome": "inactive"}
{"gene knocked down": "TUBBP2", "reagent no.": 1, "G2 robust z-score": -0.014, "G2 cells, % of GMNN control": 2.87, "outcome": "inactive"}
{"gene knocked down": "TUBBP2", "reagent no.": 2, "G2 robust z-score": 2.74, "G2 cells, % of GMNN control": 22.2, "outcome": "inactive"}
{"gene knocked down": "TUBBP2", "reagent no.": 3, "G2 robust z-score": 2.19, "G2 cells, % of GMNN control": 18.4, "outcome": "inactive"}
{"gene knocked down": "ZBTB22", "reagent no.": 1, "G2 robust z-score": -0.346, "G2 cells, % of GMNN control": 0.536, "outcome": "inactive"}
{"gene knocked down": "ZBTB22", "reagent no.": 2, "G2 robust z-score": 3.25, "G2 cells, % of GMNN control": 25.8, "outcome": "inactive"}
{"gene knocked down": "ZBTB22", "reagent no.": 3, "G2 robust z-score": 1.66, "G2 cells, % of GMNN control": 14.7, "outcome": "inactive"}
